# In the supplement of paper PMC12067093, “Discovery and optimisation of a covalent ligand for TRIM25 and its application to targeted protein ubiquitination” (Chemical Science, 2025):
# Some of the results follow.
# Compound: Cc1cc(ccc1-c1ccccc1)C(=O)N1CCCN(CC1)C(=O)CCl [compound 10]
# Assay: probe-labelled cysteine peptide fold change vs DMSO (competition) (log2 fold change); higher = less target engagement (more negative = stronger competition)
# Settings: 10 µM; THP-1; incubation time: 4 h
# 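Also: competitive profiling in live THP-1 cells: cysteine peptides tagged with an iodoacetamide desthiobiotin (IA-DTB) probe, intensity after compound treatment relative to DMSO-treated cells.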
row,Target,probe-labelled cysteine peptide fold change
1,SFMBT1_Q9UHJ3_325_SFVCHADSPGIFPVQWSLK (UniProt Q9UHJ3),0.104
2,SGSM3_Q96HU1_517_DEHCWVGELNGLR (UniProt Q96HU1),0.186
3,SKIV2L_Q15477_877_VFTTLVLCDKPLSQDPQDR (UniProt Q15477),0.178
4,SLC25A3_Q00325-2_75_YYALCGFGGVLSCGLTHTAVVPLDLVK (UniProt Q00325),0.0167
5,SLC30A1_Q9Y6M5_437_SSVVPCELACR (UniProt Q9Y6M5),-0.204
6,SKIV2L_Q15477_1014_KLEELIQGAQCVHSPR (UniProt Q15477),0.000295
7,SGK3_Q96BR1_308_DLKPENILLDSVGHVVLTDFGLCK (UniProt Q96BR1),-0.16
8,SKIV2L_Q15477_913_LFLPEGPCDHTVVK (UniProt Q15477),-0.034
9,SKP2_Q13309_327_NDCFQEFFQLNYLQHLSLSR (UniProt Q13309),-0.0622
10,SLC27A2_O14975_149_SLLHCFQCCGAK (UniProt O14975),-0.0436
11,SKIV2L_Q15477_877_VFTTLVLCDK (UniProt Q15477),-0.0936
12,SLC27A3_Q5K4L6_411_FSAGQFWEDCQQHR (UniProt Q5K4L6),0.26
13,SKIV2L_Q15477_50_AVELGCTGHWELLNLPGAPESSLPHGLPPCAPDLQQEAEQLFLSSPAWLPLHGVEHSAR (UniProt Q15477),0.464
14,SH3BP5L_Q7L8J4_178_NRLDPTWQEMLNHATCK (UniProt Q7L8J4),0.0677
15,SETD2_Q9BYW2_836_ISSNSFMNVHLESKPVICDSR (UniProt Q9BYW2),0.115

# Two records drawn at random from the list so far:
row,Target,probe-labelled cysteine peptide fold change
11,SKIV2L_Q15477_877_VFTTLVLCDK (UniProt Q15477),-0.0936
1,SFMBT1_Q9UHJ3_325_SFVCHADSPGIFPVQWSLK (UniProt Q9UHJ3),0.104
